Measurements from the supplement of paper PMC10470496.
Counter-ions that a name gives are not always drawn. This is one part of the list. Repeats are few or missing, and single values can be far off.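 The three strains are clinical Candida auris isolates from the CDC resistance isolate bank, from clades III, IV and I, grown in RPMI-1640 at 35°C. Growth is background-corrected OD600 relative to vehicle-only wells on the same plate; a hit meant over 50% inhibition in at least two strains plus a plate-corrected B-score above 0.1.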

Key:
Assay in all cases: growth relative to vehicle control (OD600 ratio) (fraction); higher = less inhibition
Conditions in all cases: 24 h
C. auris AR-384 = test system: C. auris AR-384
C. auris AR-386 = test system: C. auris AR-386
C. auris AR-387 = test system: C. auris AR-387

| SMILES | growth (C. auris AR-384; 1 µM) | growth (C. auris AR-384; 10 µM) | growth (C. auris AR-386; 1 µM) | growth (C. auris AR-386; 10 µM) | growth (C. auris AR-387; 1 µM) | growth (C. auris AR-387; 10 µM) |
| --- | --- | --- | --- | --- | --- | --- |
| O=c1[nH]c2ccccc2n1C1CCN(CCCC(c2ccc(F)cc2)c2ccc(F)cc2)CC1 [Pimozide] | 1.32 | 1.44 | 1.43 | 1.45 | 1.37 | 1.47 |
| Cc1cccc([C@H](C)c2c[nH]cn2)c1C [Dexmedetomidine] | 1.23 | 1.31 | 1.5 | 1.24 | 1.61 | 1.23 |
| Cc1cc(C(C#N)c2ccc(Cl)cc2)c(Cl)cc1NC(=O)c1cc(I)cc(I)c1O (stereo not given) [Closantel Sodium] | 1.04 | 0.62 | 1.03 | 0.43 | 0.94 | 0.56 |
| C[CH2][Hg][S]c1ccccc1C(=O)[O-].[Na+] [Thimerosal] | 0.21 | 0.18 | 0.03 | 0.03 | 0.03 | 0 |
| C#CCN(C)[C@H](C)Cc1ccccc1 [Selegiline HCl] | 0.64 | 0.53 | 0.82 | 0.85 | 1.07 | 0.74 |
| NC(=O)C[S@@+]([O-])C(c1ccccc1)c1ccccc1 [Armodafinil] | 0.78 | 0.77 | 0.86 | 1.02 | 0.7 | 0.87 |
| Cc1ccccc1-n1c(CF)nc2ccc(N)cc2c1=O [Afloqualone] | 0.71 | 0.78 | 0.9 | 1 | 0.83 | 0.88 |
| CCC1(c2ccc(N)cc2)CCC(=O)NC1=O (stereo not given) [Aminoglutethimide] | 0.94 | 1.09 | 1.24 | 0.79 | 0.93 | 1.05 |
| Cc1cc(O)ccc1Cl [Chlorocresol] | 0.69 | 0.61 | 0.8 | 0.34 | 0.82 | 0.79 |
| CCCCCCC(=O)O[C@H]1CC[C@H]2[C@@H]3CCC4=CC(=O)CC[C@]4(C)[C@H]3CC[C@]12C [Testosterone Enanthate] | 0.74 | 0.73 | 0.84 | 0.95 | 0.74 | 0.78 |
| C=CC[C@]1(O)CC[C@H]2[C@@H]3CCC4=CC(=O)CCC4=C3C=C[C@@]21C [Altrenogest] | 0.87 | 1.02 | 0.88 | 0.87 | 1.24 | 1.22 |
| NCCCNCCSP(=O)(O)O [Amifostine] | 0.59 | 0.56 | 0.82 | 0.85 | 0.74 | 0.67 |
| CCC1(C)CC(=O)NC(=O)C1 [Bemegride] | 0.96 | 0.79 | 1.12 | 0.78 | 0.77 | 0.65 |
| CC(O)(CS(=O)(=O)c1ccc(F)cc1)C(=O)Nc1ccc(C#N)c(C(F)(F)F)c1 (stereo not given) [Bicalutamide] | 0.88 | 1.32 | 1.34 | 1.43 | 1.12 | 1.4 |
| C=C1C[C@@H]2[C@H](CC[C@]3(C)C(=O)CC[C@@H]23)[C@@]2(C)C=CC(=O)C=C12 [Exemestane] | 1.2 | 0.82 | 0.83 | 1.31 | 1.07 | 0.83 |
| CN1c2ccccc2C(NCCCCCCC(=O)O)c2ccc(Cl)cc2S1(=O)=O (stereo not given) [Tianeptine sodium] | 1.05 | 0.78 | 0.87 | 1.06 | 0.87 | 1.09 |
| COC(=O)C1=CCCN(C)C1 [Arecoline HBr] | 1.21 | 1.06 | 1.02 | 1.05 | 0.94 | 0.96 |
| O=C(O)CCCc1ccc(N(CCCl)CCCl)cc1 [Chloroambucil] | 0.79 | 0.77 | 0.68 | 0.7 | 0.6 | 0.79 |
| Cn1c(CCCC(=O)O)nc2cc(N(CCCl)CCCl)ccc21 [Bendamustine HCl] | 0.67 | 1.14 | 1.16 | 0.98 | 0.84 | 1.07 |
| COc1cc2c(cc1OC)[C@@]13CCN4CC5=CCO[C@H]6CC(=O)N2[C@H]1[C@H]6[C@H]5C[C@H]43 [Brucine sulfate salt hydrate] | 1.27 | 1.12 | 1.34 | 1.21 | 1.2 | 1.18 |
| CC[C@@H](C(N)=O)N1CCCC1=O [Levetiracetam] | 1.29 | 1.46 | 1.14 | 0.85 | 0.7 | 0.67 |
| [O-][n+]1ccccc1[S-].[O-][n+]1ccccc1[S-].[Zn+2] [Zinc Pyrithione] | 0.88 | 0.69 | 0.76 | 0.48 | 0.57 | 0.65 |
| COc1ccc(C(CN(C)C)C2(O)CCCCC2)cc1 (stereo not given) [Venlafaxine HCl] | 0.74 | 0.52 | 0.84 | 1.1 | 0.75 | 0.79 |
| Cc1cccc(Cc2c[nH]cn2)c1C [Detomidine HCl] | 0.66 | 0.93 | 1.06 | 1.2 | 1.08 | 0.86 |
| COc1ccc2c(c1)[C@]13CCCC[C@@H]1[C@H](C2)N(C)CC3 [Dextromethorphan hydrobromide hydrate] | 1.22 | 0.97 | 0.81 | 0.9 | 0.87 | 0.98 |

| SMILES | growth (C. auris AR-384; 1 µM) | growth (C. auris AR-384; 10 µM) | growth (C. auris AR-386; 1 µM) | growth (C. auris AR-386; 10 µM) | growth (C. auris AR-387; 1 µM) | growth (C. auris AR-387; 10 µM) |
| --- | --- | --- | --- | --- | --- | --- |
| CC(=O)O[C@H]1C[C@@H]2CC[C@@H]3[C@H](CC[C@@]4(C)[C@H]3C[C@H]([N+]3(C)CCCCC3)[C@@H]4OC(C)=O)[C@@]2(C)C[C@@H]1[N+]1(C)CCCCC1 [Pancuronium dibromide] | 0.77 | 0.9 | 0.73 | 1.1 | 1.05 | 0.76 |
| NC(=O)CN1CC(O)CC1=O (stereo not given) [Oxiracetam] | 0.94 | 0.82 | 0.96 | 0.81 | 0.89 | 1.11 |
| Nc1nc(N)nc(NC2CC2)n1 [Cyromazine] | 0.97 | 0.85 | 0.9 | 1.18 | 0.92 | 1.13 |
| CN(C)C(=O)Oc1ccc[n+](C)c1 [Pyridostigmine Bromide] | 1.07 | 0.97 | 1.08 | 0.97 | 0.93 | 0.87 |
| COc1cc2c(cc1OC)C1CC(=O)C(CC(C)C)CN1CC2 (stereo not given) [Tetrabenazine (Xenazine)] | 0.73 | 0.58 | 0.71 | 0.99 | 0.75 | 0.76 |
| C[N+]1(C)[C@@H]2C[C@@H](OC(=O)[C@H](CO)c3ccccc3)C[C@H]1[C@@H]1O[C@@H]12 [Methscopolamine] | 1.06 | 1.28 | 0.98 | 0.82 | 0.84 | 1.07 |
| Cc1cc(C(C#N)c2ccc(Cl)cc2)c(Cl)cc1NC(=O)c1cc(I)cc(I)c1O (stereo not given) [Closantel] | 1.06 | 1.11 | 0.95 | 0.92 | 0.94 | 1.05 |
| Cn1c(COP(=O)(NCCBr)NCCBr)cnc1[N+](=O)[O-] | 0.81 | 0.96 | 0.93 | 0.66 | 0.73 | 0.84 |
| C=CCN1CC[C@]23c4c5ccc(O)c4O[C@H]2C(=O)CC[C@@]3(O)[C@H]1C5 [Naloxone HCl] | 0.86 | 1.46 | 0.89 | 1.19 | 0.93 | 1.38 |
| C/C(=C\c1csc(C)n1)[C@@H]1C[C@@H]2O[C@]2(C)CCC[C@H](C)[C@H](O)[C@@H](C)C(=O)C(C)(C)[C@@H](O)CC(=O)O1 [Patupilone (EPO906, Epothilone B)] | 1.02 | 1.1 | 1.32 | 1.23 | 1.31 | 1.19 |
| COc1ccc(CN2CCNCC2)c(OC)c1OC [Trimetazidine dihydrochloride] | 0.8 | 0.96 | 0.89 | 0.86 | 0.88 | 0.79 |
| CN1CCN(C(=O)O[C@H]2c3nccnc3C(=O)N2c2ccc(Cl)cn2)CC1 [Eszopiclone] | 0.98 | 0.87 | 1.19 | 0.71 | 0.67 | 0.76 |
| CC[C@H]1CN2CC[C@H]1C[C@@H]2[C@@H](O)c1ccnc2ccc(OC)cc12 [Hydroquinidine] | 1.05 | 0.84 | 0.88 | 1.04 | 0.85 | 1.2 |
| Oc1cc(Cl)ccc1Oc1ccc(Cl)cc1Cl [Triclosan] | 0.91 | 0.41 | 0.6 | 0.43 | 0.68 | 0.42 |
| OC(c1ccccc1)(c1ccccc1)C1CCNCC1 [Azacyclonol] | 0.8 | 0.54 | 0.89 | 0.58 | 0.58 | 0.69 |
| C=CCN1CC[C@]23c4c5ccc(O)c4O[C@H]2C(=O)CC[C@@]3(O)[C@H]1C5 [Naloxone HCl Dihydrate] | 0.93 | 0.77 | 1.05 | 0.68 | 0.82 | 0.6 |
| CNCC(=O)c1ccc(O)c(O)c1 [Adrenalone HCl] | 1.11 | 0.69 | 0.77 | 1.06 | 0.83 | 1 |
| N=C(N)NN [Aminoguanidine hydrochloride] | 0.96 | 0.97 | 0.67 | 0.76 | 0.67 | 0.64 |
| N[C@@H](Cc1ccc(N(CCCl)CCCl)cc1)C(=O)O [Melphalan] | 0.75 | 0.86 | 0.78 | 0.59 | 0.61 | 0.7 |
| CCN(C)C(=O)Oc1cccc([C@H](C)N(C)C)c1 [Rivastigmine Tartrate] | 1.27 | 1.11 | 1.1 | 1.29 | 1.23 | 1.06 |
| C[C@@H]1[C@H](O)[C@@H](C)/C=C/C=C/CC/C=C/C=C/C=C/C=C/[C@H](O[C@H]2O[C@@H](C)[C@H](O)[C@@H](N)[C@H]2O)C[C@@H]2O[C@](O)(C[C@@H](O)[C@H](O)CC[C@@H](O)C[C@@H](O)C[C@@H](O)CC(=O)O[C@H]1C)C[C@H](O)[C@H]2C(=O)O [Nystatin (Fungicidin)] | 0.94 | 0.11 | 1.27 | 0.42 | 0.89 | 0.03 |
| C=C1CC[C@@]2(O)[C@H]3Cc4ccc(O)c5c4[C@@]2(CCN3CC2CC2)[C@H]1O5 [Nalmefene HCl] | 1.24 | 1.3 | 1.17 | 1.35 | 1.07 | 1 |
| CCCC[N+]1(C)[C@@H]2C[C@@H](OC(=O)[C@H](CO)c3ccccc3)C[C@H]1[C@@H]1O[C@@H]12 (stereo not given in full) [Butylscopolamine Bromide] | 1.38 | 1.49 | 1.45 | 1.18 | 1.31 | 1.07 |
| CC(C)NCC(O)c1ccccc1Cl (stereo not given) [Clorprenaline HCl] | 0.75 | 0.76 | 0.77 | 0.93 | 0.63 | 0.78 |
| C[C@]12CCC(=O)C(O)=C1CC[C@@H]1[C@@H]2CC[C@]2(C)C(=O)CC[C@@H]12 [Formestane] | 0.69 | 0.8 | 0.76 | 0.82 | 0.74 | 0.9 |

Copied from the list.
growth (C. auris AR-387; 1 µM), CC(=O)O[C@H]1C[C@@H]2CC[C@@H]3[C@H](CC[C@@]4(C)[C@H]3C[C@H]([N+]3(C)CCCCC3)[C@@H]4OC(C)=O)[C@@]2(C)C[C@@H]1[N+]1(C)CCCCC1 [Pancuronium dibromide] is entered as 1.05
growth (C. auris AR-387; 1 µM), OC(c1ccccc1)(c1ccccc1)C1CCNCC1 [Azacyclonol] is entered as 0.58
growth (C. auris AR-386; 1 µM), N=C(N)NN [Aminoguanidine hydrochloride] is entered as 0.67
growth (C. auris AR-387; 1 µM), C[C@]12CCC(=O)C(O)=C1CC[C@@H]1[C@@H]2CC[C@]2(C)C(=O)CC[C@@H]12 [Formestane] is entered as 0.74
